# Measurements from PubChem BioAssay AID720534 (National Center for Advancing Translational Sciences (NCATS), 2013).
# The campaign covered roughly 1,600 compounds. About 990 (62%) were called active. So high a share suggests a set chosen from earlier hits. The inconclusive results got no clear call from the source; some entries with a clear call stand among them for comparison. Calls come from the whole dose curve; as a rule, active = well fitted inhibition curve with a large enough effect; inconclusive = small, poorly fitted or top-dose-only effect; inactive = no such curve, though single readings can be large or run the other way. Potencies of inconclusive entries are doubtful fits and often do not repeat.
# Experiment: qHTS for Inhibitors of TGF-b: Confirmation of Cherry Picks; note: nearly all actives have a fitted effect of over 65% in size
# Settings: HepG2 CAGA-GFP TGF-b reporter, GFP fluorescence, 18 h, cells stimulated with TGF-beta, 500 pg/mL; activity, negative = inhibition: at 46.1 µM (top of the series)
# Summary of the method: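 Smad3-responsive CAGA-GFP HepG2 reporter assay. Compounds preceded a 500 pg/mL TGF-beta challenge lasting 18 h at 37 degrees C; normalization used unstimulated cells as full inhibition and stimulated DMSO controls as none.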
# % is set by controls: 0 for no effect and ±100 for the full control effect; potency is the fitted concentration of half-maximal effect.
SMILES,Potency,"activity, negative = inhibition"
O=C(NCC1CC1)c1ccc(Nc2nc3ccc(Br)cc3[nH]2)cc1,"inconclusive: 20.6 µM [inhibitor, single point]",
CC(C)C[C@H]1CNC(=S)N1C[C@H]1CCCN1C[C@H](CC(C)C)N1C[C@H](Cc2ccc(O)cc2)N(CCc2ccccc2)C1=S,"inconclusive: 29.1 µM [inhibitor, single point]",
COc1ccc(NC(=S)N(CCCN2CCCC2)Cc2cccn2Cc2ccc(Cl)cc2)cc1Cl,"inconclusive: 29.1 µM [inhibitor, single point]",
COCc1cc(S(=O)c2ccc(Cl)cc2)nc(C)n1 (configuration not stated),"inconclusive: 20.6 µM [inhibitor, single point]",
CCOc1ccc(S(=O)(=O)N2CCN(C(=S)NCc3ccco3)CC2)cc1,"inconclusive: 25.9 µM [inhibitor, single point]",
O=S(=O)(Nc1cccc2cccnc12)c1ccccc1,active: 23.1 µM,
Cc1ccc(OCCNC(=O)/C=C/c2ccc([N+](=O)[O-])cc2)cc1C,,inactive: -23.3%
COc1ccc(Nc2nc(N3CCCC3)nc3ccccc23)c(OC)c1,"inconclusive: 18.4 µM [inhibitor, single point]",
Cc1ccc(S(=O)(=O)Nc2cccc3c2O[C@H](CN(C)Cc2ccc(-c4ccccc4)cc2)[C@@H](C)CN([C@H](C)CO)C3=O)cc1,active: 16.4 µM,
C/C(=N/NC(=O)c1ccc(C(C)(C)C)cc1)c1ccccn1,active: 2.59 µM,
COc1ccc(C2=NN(C(=O)COC(=O)c3ccc(S(C)(=O)=O)c([N+](=O)[O-])c3)C(c3ccco3)C2)cc1 (configuration not stated),"inconclusive: 29.1 µM [inhibitor, single point]",
CC(C)(C)c1ccc(Cn2cnc(-c3ccc([N+](=O)[O-])cc3)c2)cc1,active: 20.6 µM,
Cc1ccc(SC[C@H](C)CN2CC[C@H](C(C)(C)C)CCC2=O)cc1,"inconclusive: 18.4 µM [inhibitor, single point]",
Clc1ccccc1Nc1nc(-c2ccncc2)nc2ccccc12,,inactive: -13.5%
O=C(N/N=C/c1ccccc1O)c1cccc2ccccc12,"inconclusive: 25.9 µM [inhibitor, partial curve, poor fit]",
COc1ccc(OC)c(CN2CCCC(C(=O)c3ccccc3SC)C2)c1 (configuration not stated),"inconclusive: 29.1 µM [inhibitor, single point]",
O=C(Nc1ccc([N+](=O)[O-])cc1)Nc1ccon1,"inconclusive: 13 µM [inhibitor, partial curve]",
COC(=O)[C@@]1(Cc2ccccc2)[C@H]2C(=O)N(Cc3ccccc3)C(=O)[C@H]2[C@H]2CN=C(SCC3CC3)N21,"inconclusive: 18.4 µM [inhibitor, single point]",
CCC(=O)NC(Nc1sc2c(c1C(=O)OC)CCC2)C(Cl)(Cl)Cl (configuration not stated),active: 20.6 µM,
Nc1nn(S(=O)(=O)c2ccccc2)cc1-c1ccc([N+](=O)[O-])cc1,active: 16.4 µM,
CCOc1ccc(C(=O)c2cc([N+](=O)[O-])ccc2N2CCOCC2)cc1,"inconclusive: 1.3 µM [inhibitor, partial curve, poor fit]",

# In another format: 3 of the compounds above
SMILES | Potency | activity, negative = inhibition
O=C(NCC1CC1)c1ccc(Nc2nc3ccc(Br)cc3[nH]2)cc1 | inconclusive: 20.6 µM [inhibitor, single point] | 
COc1ccc(NC(=S)N(CCCN2CCCC2)Cc2cccn2Cc2ccc(Cl)cc2)cc1Cl | inconclusive: 29.1 µM [inhibitor, single point] | 
COCc1cc(S(=O)c2ccc(Cl)cc2)nc(C)n1 (configuration not stated) | inconclusive: 20.6 µM [inhibitor, single point] | 

# Next results.

SMILES,Potency,"activity, negative = inhibition"
COc1ccc(NS(=O)(=O)c2cc(NC(=O)CNC(=O)c3cccc(OC)c3)ccc2C)cc1,"inconclusive: 3.66 µM [inhibitor, partial curve]",
Cc1ccc(-c2c(C(=O)NCc3ccc(F)cc3)oc(=O)c3ccccc23)cc1,"inconclusive: 25.9 µM [inhibitor, partial curve, poor fit]",
CC(=O)Nc1ccc(N=Cc2c(O)c(C(=O)Nc3ccccc3)cc3ccccc23)cc1,,inactive: -9.17%
C=C1C2=C(C(=O)N1OC)[C@@H](O)[C@@](C)(O)[C@@H](CCCCC)O2,"inconclusive: 14.6 µM [inhibitor, partial curve, poor fit]",
Oc1c(C(c2ccccc2Cl)N2CCCC2)ccc2cccnc12 (configuration not stated),"inconclusive: 20.6 µM [inhibitor, single point]",
O=c1c2ccccc2c(=O)n(Cc2ccccc2)n1Cc1ccccc1,"inconclusive: 23.1 µM [inhibitor, single point]",
COc1ccc(-c2cc(-c3c(O)c(OC)c4occc4c3OC)[nH]n2)cc1OC,"inconclusive: 16.4 µM [inhibitor, single point]",
Cc1nc2cc(-c3cccc(F)c3)nn2c(C)c1CCC(=O)NC(C)c1ccc2c(c1)OCCO2 (configuration not stated),"inconclusive: 29.1 µM [inhibitor, single point]",
C[C@]12c3[nH]c4cc(-c5ccco5)ccc4c3CCN1C(=O)[C@@H](CC(=O)NCCc1ccccn1)C[C@@H]2C(=O)N1CCCCC1,"inconclusive: 23.1 µM [inhibitor, single point]",
CCCC(=O)NC(c1ccc(Cl)cc1)c1ccc2cccnc2c1O (configuration not stated),"inconclusive: 23.1 µM [inhibitor, partial curve]",
Cc1ccccc1OCCNC(=O)c1ccccc1Sc1ccccc1C#N,,inactive: -25.2%
O=C(COc1ccccc1)N[C@@H]1c2ccccc2CC[C@H]1OCc1ccccc1,"inconclusive: 29.1 µM [inhibitor, single point]",
Cc1nnc(Sc2cc(NCCCO)c([N+](=O)[O-])c3nonc23)s1,active: 4.61 µM,
Cc1ccc(Nc2nc(-c3cccnc3)nc3ccccc23)cc1,"inconclusive: 29.1 µM [inhibitor, single point]",
CCc1ccc(CCC(=O)Nc2ncc(Cc3ccccc3Cl)s2)o1,"inconclusive: 7.31 µM [inhibitor, partial curve]",
CCOc1ccc(CCN2C(=S)N([C@@H](Cc3ccc(O)cc3)CN3CCC[C@@H]3CN3C(=S)NC[C@@H]3CC(C)C)C[C@@H]2Cc2ccccc2)cc1,"inconclusive: 5.8 µM [inhibitor, full curve]",
CSc1ccccc1NC(=O)C(C)N(C)CC(=O)N1CCN(Cc2ccccc2)CC1 (configuration not stated),"inconclusive: 20.6 µM [inhibitor, single point]",
COC(=O)c1[nH]c2c(c1C)C(=O)CC(c1ccccc1)C2 (configuration not stated),"inconclusive: 4.61 µM [inhibitor, full curve]",
NC(=O)CC(NC(=O)Cc1cccc2ccccc12)c1ccc(N2CCc3ccccc3C2)c([N+](=O)[O-])c1 (configuration not stated),"inconclusive: 25.9 µM [inhibitor, single point]",
Cc1cc(/C=N/NC(N)=S)c(C)n1-c1ccc(Br)cc1,active: 10.3 µM,
CC(C)C[C@@H](CN1CCCC1CN1C(=S)NC[C@@H]1Cc1ccc(O)cc1)N1C[C@H](Cc2ccccc2)N(CCc2ccccc2)C1=S (some centres not stated),"inconclusive: 16.4 µM [inhibitor, single point]",

SMILES,Potency,"activity, negative = inhibition"
COc1cc(C2C3=C(COC3=O)OC(C)(C)Oc3cc4c(cc32)OCO4)cc(OC)c1OC (configuration not stated),"inconclusive: 1.46 µM [inhibitor, full curve]",
COc1ccc(N2CCCC2)c(NC(=O)c2ccc([N+](=O)[O-])o2)c1,"inconclusive: 20.6 µM [inhibitor, single point]",
COc1ccc(C(c2c(O)ccc3ccccc23)N2CCOCC2)c(OC)c1 (configuration not stated),"inconclusive: 20.6 µM [inhibitor, single point]",
O=S(=O)(c1cc(F)ccc1F)N1CCN(c2ncnc3ccccc23)CC1,active: 8.2 µM,
COC(=O)c1ccc(CNC(=O)CSc2nnc(COc3ccccc3)n2C)o1,,inactive: -11.4%
O=C(Nc1ccc(Cl)cc1)Nc1nnc(/C=C/c2ccccc2)s1,,inactive: -28.9%
O=C(c1cc(-c2ccccc2)n[nH]1)N1CCc2c([nH]c3ccccc23)C1c1ccccn1 (configuration not stated),active: 14.6 µM,
CCOc1ccccc1CNC(=O)c1ccc(Sc2ccc(Cl)cc2)c(NC(C)=O)c1,"inconclusive: 20.6 µM [inhibitor, partial curve]",
COc1ccc2c(c1OC)C(=O)OC2Nc1nc(-c2ccc(-c3ccccc3)cc2)cs1 (configuration not stated),active: 23.1 µM,
COc1ccc(-c2[nH]ncc2CN2CCC(O)(c3ccc(Cl)cc3)CC2)cc1,"inconclusive: 23.1 µM [inhibitor, single point]",
C[C@]12c3[nH]c4cc(-c5ccco5)ccc4c3CCN1C(=O)[C@@H](CC(=O)NCCC1=CCCCC1)C[C@@H]2C(=O)N1CCOCC1,"inconclusive: 29.1 µM [inhibitor, single point]",
O=C(c1cc(-c2ccccc2Cl)nc2ccc(Br)cc12)N1CCN(c2ccccn2)CC1,,inactive: -29.9%
OC(CNCC(c1ccc(Cl)cc1Cl)c1c[nH]c2ccccc12)c1ccccc1 (configuration not stated),"inconclusive: 29.1 µM [inhibitor, single point]",
Cc1ccc(S(=O)(=O)N2CCCCC2)cc1C(=O)OC1CCCCC1=O (configuration not stated),,inconclusive: -37.1% [inhibitor]
O=C(C[C@@H]1C/C=C\C[C@@H](Cc2ccc(F)cc2)C(=O)OC[C@@H](Cc2ccccc2)NC1=O)N[C@H](CO)Cc1ccccc1,,inactive: 3.06%
COc1ccc(C2=NNC(=Nc3cc(S(=O)(=O)N(C)C)ccc3C)SC2)c(OC)c1,"inconclusive: 25.9 µM [inhibitor, single point]",
Cc1ccc(S(=O)(=O)N2CCN(CCc3ccccc3)CC2)c(C)c1,active: 23.1 µM,
CCC(C)NS(=O)(=O)c1ccc(NC(=O)C(Sc2ccccc2)c2ccccc2)cc1 (configuration not stated),"inconclusive: 16.4 µM [inhibitor, single point]",
Cc1ccc(Cl)cc1N1CCN(C(=O)c2cc3c(=O)[nH]c4ccccc4c3n2C)CC1,"inconclusive: 2.59 µM [inhibitor, full curve]",
CC(NC(=O)CC(c1ccccc1)c1cc(Cl)ccc1O)c1ccccc1 (configuration not stated),"inconclusive: 25.9 µM [inhibitor, single point]",
